Data reported in PMC9666523.
No constants are given. Whether binding was seen depends on the method and setting. Binding seen in cells or lysates may run through a third protein. Binding can be weak; no strength is given. Tags and fused reporters may be left off the sequences shown.

Target: T1, FLAG-Sting (UniProt Q3TBT3)
T1 sequence: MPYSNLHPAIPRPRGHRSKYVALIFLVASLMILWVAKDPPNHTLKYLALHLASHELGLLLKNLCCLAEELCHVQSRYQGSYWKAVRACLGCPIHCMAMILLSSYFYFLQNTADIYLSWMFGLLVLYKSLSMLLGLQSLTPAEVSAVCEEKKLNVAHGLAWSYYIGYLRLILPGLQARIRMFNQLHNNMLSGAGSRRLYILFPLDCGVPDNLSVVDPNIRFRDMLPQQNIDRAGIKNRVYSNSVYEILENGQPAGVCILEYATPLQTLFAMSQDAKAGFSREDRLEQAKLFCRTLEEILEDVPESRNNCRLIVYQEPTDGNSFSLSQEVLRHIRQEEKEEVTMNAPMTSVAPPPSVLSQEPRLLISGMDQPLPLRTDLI
Assay: co-IP; HEK293T cells transfected with FLAG-Sting and HA-Rab GTPases, harvested 24 h later; lysis in 20 mM Tris-HCl pH 7.4, 0.5% Nonidet-P40, 150 mM NaCl; IP with the FLAG antibody on Protein G dynabeads overnight at 4 °C; western blot

In the case of HA-Rab27, the binding is reported as “binds weakly”.
